Positions count from the first letter of the chain named. Results are given in words; binding and its absence hold for the method and conditions named. Binding seen in cells or lysates may run through a third protein. A result given as binding can be weak or reduced; the word gives no strength. Where a sequence is shown, tags or fusion partners need not be part of it.
Experiments:
Assay in all cases: co-IP; FLAG-tagged mouse Trim28 (WT or mutants) and Gal4^DBD-KRAB in TRIM28-knockout K562 cells; IP with anti-FLAG, Western blot with anti-FLAG and anti-Gal4; whole-cell extract buffer with 300 mM NaCl, 0.1% Triton X-100, 4 °C
[1] = biological target: T1, FLAG-tagged mouse Trim28-K290R (mouse) (UniProt Q62318)
T1 sequence: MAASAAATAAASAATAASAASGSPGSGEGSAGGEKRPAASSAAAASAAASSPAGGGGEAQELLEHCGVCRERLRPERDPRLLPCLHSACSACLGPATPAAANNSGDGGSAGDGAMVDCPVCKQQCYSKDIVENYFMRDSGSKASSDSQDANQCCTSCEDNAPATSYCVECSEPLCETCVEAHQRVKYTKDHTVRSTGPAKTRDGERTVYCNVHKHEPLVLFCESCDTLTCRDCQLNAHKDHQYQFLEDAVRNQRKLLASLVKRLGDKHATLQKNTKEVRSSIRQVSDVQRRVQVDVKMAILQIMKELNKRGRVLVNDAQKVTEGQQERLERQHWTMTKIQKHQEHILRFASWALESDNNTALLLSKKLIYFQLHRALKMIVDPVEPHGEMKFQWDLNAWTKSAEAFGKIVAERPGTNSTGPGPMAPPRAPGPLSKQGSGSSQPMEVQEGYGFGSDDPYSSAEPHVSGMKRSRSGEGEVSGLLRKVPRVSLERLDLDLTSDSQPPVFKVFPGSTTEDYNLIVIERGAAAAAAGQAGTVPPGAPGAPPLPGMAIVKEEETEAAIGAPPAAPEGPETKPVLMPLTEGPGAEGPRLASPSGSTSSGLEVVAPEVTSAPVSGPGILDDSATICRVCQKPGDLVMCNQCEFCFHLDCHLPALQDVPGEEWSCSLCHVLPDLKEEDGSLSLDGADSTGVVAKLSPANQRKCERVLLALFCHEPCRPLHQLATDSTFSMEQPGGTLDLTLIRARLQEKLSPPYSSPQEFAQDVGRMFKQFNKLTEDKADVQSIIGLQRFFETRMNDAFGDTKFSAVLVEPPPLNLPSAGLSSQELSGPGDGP

[2] = biological target: T2, FLAG-tagged mouse Trim28-K267Q (mouse) (UniProt Q62318)
T2 sequence: T1 sequence with K267Q, R290K

[3] = biological target: T3, FLAG-tagged mouse Trim28-K290Q (mouse) (UniProt Q62318)
T3 sequence: T1 sequence with R290Q

Measured: binding

Gal4 DNA-binding domain (Gal4^DBD)-KRAB (domain or fragment)
binds: all assays above
